Data as given in PubChem BioAssay AID1224828 (NIAID, 2016)
The whole screen tested about 17,000 reagents; shown is a random part of them. In the full data, 762 (4.5%) are marked active. 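Active calls include both raised and lowered p65 entry, mostly lowered; wells with fewer than 50 cells lack a z-score.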 The raw values are shown without normalisation. A number with no mark means an inactive call.

Test: 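Regulators linking TLR4 signalling to p65 nuclear translocation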 (primary screen)
Cells: mouse RAW264.7 G9 macrophage reporter cells (GFP-p65, Tnf promoter-mCherry)
Reagents: siRNA pool against mouse genes, 100 nM
Duration: 2 days siRNA transfection, then 40 min LPS before fixation
Challenge: LPS (Salmonella minnesota R595) at 10 ng/ml
Measured: 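Microscopy ratio of nuclear to perinuclear-ring GFP-p65 signal, scaled to the plate median; gene score is the average of two replicate robust z-scores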
Scale: p65 translocation robust z-score: higher = more nuclear NF-kappaB p65 after LPS than the plate median; nuclear/cytoplasmic p65 ratio: higher = more nuclear NF-kappaB p65
Active means: 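Called active when z exceeds 3.3 or falls under -1.56 (median of Tlr4 controls), giving activity score of at least 50; no calls for control wells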
Meaning of the calls: active = hit (p65 shift raised or lowered); inactive = no clear change

| gene knocked down | p65 translocation robust z-score | nuclear/cytoplasmic p65 ratio, rep 1 | nuclear/cytoplasmic p65 ratio, rep 2 | low cell count flag |
| --- | --- | --- | --- | --- |
| Slc31a1 (GeneID 20529) | – | 1.02 | 1.29 | fewer than 50 cells per well; well left out of scoring |
| Npdc1 (GeneID 18146) | 1.47 | 1.96 | 1.72 | enough cells to score |
| Klk9 (GeneID 101533) | – | 1.31 | 1.39 | fewer than 50 cells per well; well left out of scoring |
| Vti1b (GeneID 53612) | -0.76 | 1.31 | 1.13 | enough cells to score |
| Slc10a2 (GeneID 20494) | 2 | 1.67 | 1.93 | enough cells to score |
| Dnaaf11 (GeneID 54562) | -0.32 | 1.67 | 1.5 | enough cells to score |
| Cd22 (GeneID 12483) | 1.02 | 1.51 | 1.51 | enough cells to score |
| Hhat (GeneID 226861) | 1.42 | 1.45 | 1.39 | enough cells to score |
| Alg2 (GeneID 56737) | -0.57 | 1.45 | 1.67 | enough cells to score |
| Pan2 (GeneID 103135) | 0.42 | 1.6 | 1.53 | enough cells to score |
| Trem2 (GeneID 83433) | -0.04 | 1.5 | 1.5 | enough cells to score |
| Serhl (GeneID 68607) | 4.54 (active) | 1.53 | 2.88 | enough cells to score |
| Ghdc (GeneID 80860) | -1.44 | 1.35 | 1.56 | enough cells to score |
| Ssbp4 (GeneID 76900) | -1.13 | 1.37 | 1.1 | enough cells to score |
| Pgd (GeneID 110208) | -0.64 | 1.25 | 1.17 | enough cells to score |
| Tcl1b2 (GeneID 27381) | – | 1.24 | 0 | fewer than 50 cells per well; well left out of scoring |
| 2610528J11Rik (GeneID 66451) | – | 1.18 | 1.29 | fewer than 50 cells per well; well left out of scoring |
| Clcn6 (GeneID 26372) | -0.38 | 1.58 | 1.68 | enough cells to score |
| Klhl18 (GeneID 270201) | 0.62 | 1.61 | 1.68 | enough cells to score |
| Fam167b (GeneID 230766) | -1.58 (active) | 1.37 | 1.54 | enough cells to score |
| Prkaa2 (GeneID 108079) | -1.29 | 1.47 | 1.22 | enough cells to score |
| Or5ac17 (GeneID 404310) | 1.86 | 1.86 | 1.69 | enough cells to score |
| Rab19 (GeneID 19331) | 1.27 | 1.54 | 1.2 | enough cells to score |
| Nr1d1 (GeneID 217166) | -2.15 (active) | 1.14 | 1.15 | enough cells to score |
| Klra15 (GeneID 27423) | 0.43 | 1.6 | 1.37 | enough cells to score |
| Scrn2 (GeneID 217140) | -0.58 | 1.25 | 1.15 | enough cells to score |
| Trir (GeneID 68544) | – | 1.5 | 1.69 | fewer than 50 cells per well; well left out of scoring |
| Taf10 (GeneID 24075) | 0.54 | 1.59 | 1.39 | enough cells to score |
| Trp63 (GeneID 22061) | 0.49 | 1.61 | 1.46 | enough cells to score |
| Fbxw9 (GeneID 68628) | 0.69 | 1.58 | 1.66 | enough cells to score |
| Mib2 (GeneID 76580) | – | 1.39 | 1.09 | fewer than 50 cells per well; well left out of scoring |
| Cdkl4 (GeneID 381113) | 1.05 | 1.91 | 1.46 | enough cells to score |
| Hipk2 (GeneID 15258) | – | 1.8 | 1.23 | fewer than 50 cells per well; well left out of scoring |
| Tdrd3 (GeneID 219249) | – | 1.25 | 1.2 | fewer than 50 cells per well; well left out of scoring |
| Dctpp1 (GeneID 66422) | – | 1.71 | 2.41 | fewer than 50 cells per well; well left out of scoring |
| Eif2s3y (GeneID 26908) | -1.02 | 1.31 | 1.25 | enough cells to score |
| Supt3 (GeneID 109115) | 1.25 | 1.65 | 1.82 | enough cells to score |
| Tmprss2 (GeneID 50528) | – | 1.16 | 1.1 | fewer than 50 cells per well; well left out of scoring |
| Cybc1 (GeneID 217370) | 0.31 | 1.62 | 1.91 | enough cells to score |
| Plekho2 (GeneID 102595) | -1.68 (active) | 1.36 | 1.42 | enough cells to score |

Part of the list above, set out differently:
gene knocked down | p65 translocation robust z-score | nuclear/cytoplasmic p65 ratio, rep 1 | nuclear/cytoplasmic p65 ratio, rep 2 | low cell count flag
Cdkl4 (GeneID 381113) | 1.05 | 1.91 | 1.46 | enough cells to score
Hipk2 (GeneID 15258) | – | 1.8 | 1.23 | fewer than 50 cells per well; well left out of scoring
